According to patent US4801613A, “Bradykinin antagonist peptides” (Nova Technology Limited Partnership, priority 1987, dated 1989):
Part of at least one peptide drawing is inferred or uncertain, most often the ends.

Legend:
rat blood pressure = assay: Antagonism of the bradykinin depressor effect on blood pressure in the anesthetized rat; format: in vivo
[1] = tested on: isolated guinea pig ileum; format: cell-based
Procedure: The bradykinin antagonists were assayed on isolated rat uterus in natural or induced estrus and on guinea pig ileum, according to the commonly accepted assay methods for bradykinin and related kinins as described by Trautschold (Handbook of Expt. Pharmacol. Vol. 25, Springer Verlag, pp 53-55, 1970) for inhibition of the myotropic activity of bradykinin. The inhibition potencies, as determined according to the commonly accepted manner described by Schild for antagonists of biologically active compounds (Br. J. Pharmacol. 2:189, 1947), are determined on isolated rat uterus (RUT) and isolated guinea pig ileum (GPI). In the assays, a dose-response curve is determined for the reference substance bradykinin. The dose of bradykinin which produced a half maximal contraction of tissue is the ED50 dose. An amount of bradykinin equivalent to twice the ED50 dose is administered to the tissue 30 seconds after the start of incubation of the tissue with a dose of antagonist. Doses of antagonist are increased in this protocol until pre-incubation with a dose of antagonist reduces the contraction in response to the double ED50 dose of bradykinin to response of a single ED50 dose of bradykinin. The pA2 value represents the negative logarithm of the molar concentration of antagonist necessary to reduce the response of a double ED50 dose of bradykinin to that of an ED50 dose. […]

| SMILES | time for depressor effect of bradykinin to return to normal response after terminating infusion (rat blood pressure; after infusion at 25 μg/min) [min] | response to a 25 mm depressor dose (ED25 mm) of bradykinin during antagonist infusion (rat blood pressure; infused at 25 μg/min, reduced from 25 mm) [mm] | pA2/GPI ([1]; isolated guinea pig ileum, vs double ED50 dose of bradykinin, Schild) | GPI activity printed as 0 (no antagonism) ([1]; guinea pig ileum, position 3 table) |
| --- | --- | --- | --- | --- |
| N=C(N)NCCC[C@@H](N)C(=O)N[C@@H](CCCNC(=N)N)C(=O)N1CCC[C@H]1C(=O)N1CCC[C@H]1C(=O)NCC(=O)N[C@@H](Cc1ccccc1)C(=O)N[C@@H](CO)C(=O)N[C@H](Cc1ccccc1)C(=O)N[C@@H](Cc1ccccc1)C(=O)N[C@@H](CCCNC(=N)N)C(=O)O [Example 10, DArg-Arg-Pro-Pro-Gly-Phe-Ser-DPhe-Phe-Arg] | ≤ 5 | 10 | 5.6 |  |
| N=C(N)NCCC[C@@H](N)C(=O)N[C@@H](CCCNC(=N)N)C(=O)N1CCC[C@H]1C(=O)N1CCC[C@@H]1C(=O)NCC(=O)N[C@@H](Cc1ccccc1)C(=O)N[C@@H](CO)C(=O)N[C@H](Cc1ccccc1)C(=O)N[C@@H](Cc1ccccc1)C(=O)N[C@@H](CCCNC(=N)N)C(=O)O [Example 11, DArg-Arg-Pro-DPro-Gly-Phe-Ser-DPhe-Phe-Arg] |  |  |  | 0 |
